According to publication doi:10.1101/2022.06.06.494580:
These are yes or no findings as the source states them, for the method shown. Binding seen in cells or lysates may run through a third protein. These calls come from enrichment with a bait or labelling near it, and not all partners need be listed.

By UniProt entry, the sequences of proteins in these tests, tags left out.
UniProt Q9UIV1: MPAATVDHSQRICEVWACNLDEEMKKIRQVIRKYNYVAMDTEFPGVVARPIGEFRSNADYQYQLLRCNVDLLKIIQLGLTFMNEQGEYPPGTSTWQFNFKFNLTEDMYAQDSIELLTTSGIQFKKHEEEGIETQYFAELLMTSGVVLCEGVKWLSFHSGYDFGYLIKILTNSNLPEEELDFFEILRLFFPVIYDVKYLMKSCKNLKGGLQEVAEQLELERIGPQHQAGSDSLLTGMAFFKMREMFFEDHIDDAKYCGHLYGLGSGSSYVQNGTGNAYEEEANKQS
UniProt Q9ULM6: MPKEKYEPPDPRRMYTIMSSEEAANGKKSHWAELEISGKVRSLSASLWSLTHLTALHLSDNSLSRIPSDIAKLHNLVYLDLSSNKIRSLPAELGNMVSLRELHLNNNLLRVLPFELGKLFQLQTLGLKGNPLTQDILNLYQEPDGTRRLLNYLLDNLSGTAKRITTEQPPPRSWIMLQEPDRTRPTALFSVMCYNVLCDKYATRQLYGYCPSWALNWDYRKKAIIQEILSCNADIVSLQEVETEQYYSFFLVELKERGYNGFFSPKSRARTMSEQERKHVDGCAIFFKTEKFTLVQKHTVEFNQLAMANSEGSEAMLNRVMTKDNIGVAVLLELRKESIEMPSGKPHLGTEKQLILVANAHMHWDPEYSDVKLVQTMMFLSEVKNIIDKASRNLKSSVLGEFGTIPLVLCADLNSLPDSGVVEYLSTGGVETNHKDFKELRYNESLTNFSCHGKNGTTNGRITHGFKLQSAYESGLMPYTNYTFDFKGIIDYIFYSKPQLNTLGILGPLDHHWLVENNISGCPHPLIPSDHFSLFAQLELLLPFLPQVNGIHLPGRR
UniProt Q9C0C2: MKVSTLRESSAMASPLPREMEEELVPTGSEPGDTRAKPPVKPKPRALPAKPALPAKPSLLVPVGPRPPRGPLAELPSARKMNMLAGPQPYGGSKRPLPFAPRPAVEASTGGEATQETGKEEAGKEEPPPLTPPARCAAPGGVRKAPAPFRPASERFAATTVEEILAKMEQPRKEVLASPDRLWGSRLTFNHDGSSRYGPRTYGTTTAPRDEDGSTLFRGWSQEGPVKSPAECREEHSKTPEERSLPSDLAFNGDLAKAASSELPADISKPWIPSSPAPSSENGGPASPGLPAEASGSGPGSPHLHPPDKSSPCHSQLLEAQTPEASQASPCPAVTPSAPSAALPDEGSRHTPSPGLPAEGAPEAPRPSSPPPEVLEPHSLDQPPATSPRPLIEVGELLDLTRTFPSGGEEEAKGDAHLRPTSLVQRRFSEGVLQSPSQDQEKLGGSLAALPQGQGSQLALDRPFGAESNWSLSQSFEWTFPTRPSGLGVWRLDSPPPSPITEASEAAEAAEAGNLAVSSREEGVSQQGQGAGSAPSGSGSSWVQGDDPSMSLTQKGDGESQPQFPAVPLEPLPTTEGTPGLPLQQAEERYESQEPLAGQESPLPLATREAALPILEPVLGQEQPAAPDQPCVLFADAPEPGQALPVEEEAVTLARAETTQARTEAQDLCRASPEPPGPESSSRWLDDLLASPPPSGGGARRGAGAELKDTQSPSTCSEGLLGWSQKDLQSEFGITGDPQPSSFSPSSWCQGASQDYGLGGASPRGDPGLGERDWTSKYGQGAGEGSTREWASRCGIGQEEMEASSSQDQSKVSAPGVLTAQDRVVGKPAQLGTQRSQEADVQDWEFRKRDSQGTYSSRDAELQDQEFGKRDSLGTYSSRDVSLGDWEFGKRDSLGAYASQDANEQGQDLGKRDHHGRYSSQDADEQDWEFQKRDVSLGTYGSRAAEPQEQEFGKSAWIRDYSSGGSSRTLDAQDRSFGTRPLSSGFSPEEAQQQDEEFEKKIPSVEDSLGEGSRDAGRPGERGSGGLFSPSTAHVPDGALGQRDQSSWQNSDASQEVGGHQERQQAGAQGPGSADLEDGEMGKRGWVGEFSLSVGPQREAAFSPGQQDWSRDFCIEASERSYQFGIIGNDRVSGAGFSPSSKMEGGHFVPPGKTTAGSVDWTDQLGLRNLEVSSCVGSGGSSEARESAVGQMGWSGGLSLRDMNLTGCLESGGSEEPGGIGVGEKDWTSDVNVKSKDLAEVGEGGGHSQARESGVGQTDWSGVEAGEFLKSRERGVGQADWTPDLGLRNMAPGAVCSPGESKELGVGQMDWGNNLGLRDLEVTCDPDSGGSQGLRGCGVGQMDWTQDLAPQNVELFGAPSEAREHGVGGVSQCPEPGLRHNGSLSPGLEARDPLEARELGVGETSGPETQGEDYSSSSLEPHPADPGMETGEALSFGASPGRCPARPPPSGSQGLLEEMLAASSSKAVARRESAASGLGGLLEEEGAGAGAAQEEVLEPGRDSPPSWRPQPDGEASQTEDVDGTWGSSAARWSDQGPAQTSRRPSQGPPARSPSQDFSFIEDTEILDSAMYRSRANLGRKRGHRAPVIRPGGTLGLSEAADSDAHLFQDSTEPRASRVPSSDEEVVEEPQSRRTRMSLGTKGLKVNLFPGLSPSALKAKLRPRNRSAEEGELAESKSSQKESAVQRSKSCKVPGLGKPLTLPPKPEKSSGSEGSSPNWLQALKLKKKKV

Target: 3′ 3X-FLAG-tagged CNOT7 (human) (UniProt Q9UIV1)
Assay: affinity purification with mass spectrometry

Substance	binding
CNOT6 (endogenous, Flp-In T-REx 293 lysate) (from UniProt Q9ULM6 1-557)	binds
TNKS1BP1 (endogenous, Flp-In T-REx 293 lysate) (from UniProt Q9C0C2 1-1729)	binds
